In patent US20200277343A1:
Results are given in words; binding and its absence hold for the method and conditions named. Some binding calls cover weakened binding; strength is not graded here.

Tests used:
[1] = target: T1, endothelial cell selective adhesion molecules (ESAM) (UniProt Q96AP7); assay: pull down, LC-MS/MS and western blot
T1 sequence (looked up): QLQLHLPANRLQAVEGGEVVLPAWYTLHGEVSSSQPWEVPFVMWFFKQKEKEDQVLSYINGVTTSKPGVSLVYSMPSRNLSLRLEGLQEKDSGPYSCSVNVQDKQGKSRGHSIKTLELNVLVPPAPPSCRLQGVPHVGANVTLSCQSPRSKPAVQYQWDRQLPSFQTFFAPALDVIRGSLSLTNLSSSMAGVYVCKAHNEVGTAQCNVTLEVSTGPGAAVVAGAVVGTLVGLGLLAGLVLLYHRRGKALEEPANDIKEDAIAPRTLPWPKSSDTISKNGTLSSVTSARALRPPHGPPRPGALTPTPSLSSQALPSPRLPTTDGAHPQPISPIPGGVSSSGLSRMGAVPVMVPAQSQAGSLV

[2] = target: T1, endothelial cell selective adhesion molecules (ESAM); assay: summary sentence of Example 5; pull down (FIG. 35)
[3] = target: T1, endothelial cell selective adhesion molecules (ESAM); assay: pull down, LC-MS/MS and western blot (FIG. 35)

Measured: binding

B1: Ginsentide TP1 (peptide)
peptide: CKSGGAWCGFDPHGCCGNCGCLVGFCYGTGC
modifications: four native disulfide bonds: Cys I-IV, Cys II-VI, Cys III-VII and Cys V-VIII
binds: all assays above
